Measurements from publication PMC9933293.
No constants are given. Whether binding was seen depends on the method and setting. Some results given as binding are weak or reduced against the parent protein; the word gives no strength. For part of these data: Tags and fused reporters may be left off the sequences shown.

The chains behind the UniProt entries cited, without tags or fusion partners.
UniProt Q9UUK2: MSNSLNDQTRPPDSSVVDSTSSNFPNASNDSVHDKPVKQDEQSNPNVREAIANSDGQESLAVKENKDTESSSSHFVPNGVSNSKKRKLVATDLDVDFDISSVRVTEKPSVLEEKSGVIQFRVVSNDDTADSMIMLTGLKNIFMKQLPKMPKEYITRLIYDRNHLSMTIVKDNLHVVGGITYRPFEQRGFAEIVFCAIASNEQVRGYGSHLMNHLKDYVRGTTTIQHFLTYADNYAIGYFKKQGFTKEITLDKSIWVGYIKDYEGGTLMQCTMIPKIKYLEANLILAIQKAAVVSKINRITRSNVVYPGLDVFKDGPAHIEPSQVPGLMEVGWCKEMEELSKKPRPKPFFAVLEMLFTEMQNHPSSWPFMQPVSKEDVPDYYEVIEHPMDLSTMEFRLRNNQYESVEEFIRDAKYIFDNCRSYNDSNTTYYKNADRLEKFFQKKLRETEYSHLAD

T1: Gal4BD-Ada2 (full-length) (S. pombe) (UniProt Q9P7J7)
T1 sequence: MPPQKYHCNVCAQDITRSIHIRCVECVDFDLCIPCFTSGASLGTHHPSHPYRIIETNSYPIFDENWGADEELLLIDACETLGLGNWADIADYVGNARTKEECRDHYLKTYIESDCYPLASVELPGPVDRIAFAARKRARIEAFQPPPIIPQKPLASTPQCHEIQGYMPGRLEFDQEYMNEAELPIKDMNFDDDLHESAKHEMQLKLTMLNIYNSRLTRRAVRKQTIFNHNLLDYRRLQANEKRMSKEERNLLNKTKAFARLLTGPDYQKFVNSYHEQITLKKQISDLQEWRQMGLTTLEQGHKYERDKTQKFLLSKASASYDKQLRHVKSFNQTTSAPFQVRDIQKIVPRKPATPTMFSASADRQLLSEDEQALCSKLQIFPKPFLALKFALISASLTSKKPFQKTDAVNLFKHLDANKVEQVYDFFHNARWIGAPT

T2: Gal4BD-Nse2 (aa2-178) (S. pombe) (UniProt Q4PIR3)
T2 sequence: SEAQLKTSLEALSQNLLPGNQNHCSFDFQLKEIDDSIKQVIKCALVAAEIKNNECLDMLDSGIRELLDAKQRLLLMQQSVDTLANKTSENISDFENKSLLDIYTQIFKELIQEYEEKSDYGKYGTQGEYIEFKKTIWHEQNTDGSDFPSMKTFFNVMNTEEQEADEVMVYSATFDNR

T3: Gal4BD-Smc5 CC arm (aa170-225 + 837-910) (S. pombe) (UniProt O13710)
T3 sequence: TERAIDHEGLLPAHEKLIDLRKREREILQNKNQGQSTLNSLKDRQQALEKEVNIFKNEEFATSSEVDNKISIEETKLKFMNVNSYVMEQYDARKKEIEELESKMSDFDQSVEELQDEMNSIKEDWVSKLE


How the values were obtained:
Assay in all cases: two-hybrid; Gal4-based; pGBKT7 and pGADT7 constructs co-transformed into S. cerevisiae PJ69-4a; growth on SD -Leu, -Trp, -His with 3-aminotriazole (0.5 mM AT; 10 mM AT for the self-activating Gal4BD-Smc5 CC arm) at 28 °C
[1] = molecular target: Gal4BD-Gcn5 (full-length) (S. pombe) (UniProt Q9UUK2)
[2] = molecular target: T1, Gal4BD-Ada2 (full-length) (S. pombe)
[3] = molecular target: T2, Gal4BD-Nse2 (aa2-178) (S. pombe)
[4] = molecular target: T3, Gal4BD-Smc5 CC arm (aa170-225 + 837-910) (S. pombe)

| binding [1] | binding [2] | binding [3] | binding [4] | Binder |
| --- | --- | --- | --- | --- |
| binds |  |  |  | Gal4AD-Nse3 (aa1-190) (domain or fragment, UniProt Q9Y7U4 1-190) MSQLSFTGKSSSKGRSRLTQEVRPTASQIIADEEASDLDEYEEDLEGSGNEDDFGPSMSRSSRGRKRRKGDPLELQSQFEERNETDAINFQLLVRNVVRYAICSQTSHNTITRKDIVQKAFPEGTSRNLFQSVFEEADRQLQLSFGFRLVAVTQSNRKKDMAVSQLRRPATSNANSSNLHRYWVLRSTLP |
| binds | binds |  |  | Nse3 subunit (two-hybrid construct, limits not told for this experiment) (protein, UniProt Q9Y7U4 1-328) MSQLSFTGKSSSKGRSRLTQEVRPTASQIIADEEASDLDEYEEDLEGSGNEDDFGPSMSRSSRGRKRRKGDPLELQSQFEERNETDAINFQLLVRNVVRYAICSQTSHNTITRKDIVQKAFPEGTSRNLFQSVFEEADRQLQLSFGFRLVAVTQSNRKKDMAVSQLRRPATSNANSSNLHRYWVLRSTLPMELQKDSRLIVDSVLDTAYYGFLMTVIAFIAVSHCSVGHSELQSFLQELLTEEETTPLHLDITRSLSLLVRQGYLDRVKDDTHNQFVYYIGSRAVTEISIEGLKSFVTEFFPDSDIDMDALLTEYRQEYQNQSSSSAA |

The remaining lines, values behind:

| Binder | binding [1] | binding [2] | binding [3] | binding [4] |
| --- | --- | --- | --- | --- |
| Gal4AD-Nse3 (aa200-307) (domain or fragment, UniProt Q9Y7U4 200-307) IVDSVLDTAYYGFLMTVIAFIAVSHCSVGHSELQSFLQELLTEEETTPLHLDITRSLSLLVRQGYLDRVKDDTHNQFVYYIGSRAVTEISIEGLKSFVTEFFPDSDID |  | binds |  |  |
| Gal4AD-Ada2 (full-length) (protein, UniProt Q9P7J7 1-437) MPPQKYHCNVCAQDITRSIHIRCVECVDFDLCIPCFTSGASLGTHHPSHPYRIIETNSYPIFDENWGADEELLLIDACETLGLGNWADIADYVGNARTKEECRDHYLKTYIESDCYPLASVELPGPVDRIAFAARKRARIEAFQPPPIIPQKPLASTPQCHEIQGYMPGRLEFDQEYMNEAELPIKDMNFDDDLHESAKHEMQLKLTMLNIYNSRLTRRAVRKQTIFNHNLLDYRRLQANEKRMSKEERNLLNKTKAFARLLTGPDYQKFVNSYHEQITLKKQISDLQEWRQMGLTTLEQGHKYERDKTQKFLLSKASASYDKQLRHVKSFNQTTSAPFQVRDIQKIVPRKPATPTMFSASADRQLLSEDEQALCSKLQIFPKPFLALKFALISASLTSKKPFQKTDAVNLFKHLDANKVEQVYDFFHNARWIGAPT |  |  | binds | binds |
